Reference: the supplement of paper PMC10849652
The list shows a part of the results.

Amino acid sequences for entries named in this document (tags omitted). A change or cut given only in a name is not applied to a line headed by its entry.
UniProt Q6UX04: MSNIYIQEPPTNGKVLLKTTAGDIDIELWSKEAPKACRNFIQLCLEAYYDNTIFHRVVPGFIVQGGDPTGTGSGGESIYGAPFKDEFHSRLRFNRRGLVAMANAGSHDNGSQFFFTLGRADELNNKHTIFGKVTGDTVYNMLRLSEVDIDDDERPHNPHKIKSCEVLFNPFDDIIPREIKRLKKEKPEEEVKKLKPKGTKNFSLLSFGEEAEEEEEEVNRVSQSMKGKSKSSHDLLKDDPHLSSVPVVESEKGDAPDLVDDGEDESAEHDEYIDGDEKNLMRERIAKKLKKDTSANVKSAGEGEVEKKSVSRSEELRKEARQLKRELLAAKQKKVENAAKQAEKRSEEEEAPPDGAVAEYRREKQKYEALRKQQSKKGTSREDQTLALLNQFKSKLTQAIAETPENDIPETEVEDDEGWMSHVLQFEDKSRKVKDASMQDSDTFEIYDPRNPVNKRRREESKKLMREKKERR
UniProt P04080: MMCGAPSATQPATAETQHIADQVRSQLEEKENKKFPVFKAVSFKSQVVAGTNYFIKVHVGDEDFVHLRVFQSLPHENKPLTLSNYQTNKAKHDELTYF
UniProt P49711: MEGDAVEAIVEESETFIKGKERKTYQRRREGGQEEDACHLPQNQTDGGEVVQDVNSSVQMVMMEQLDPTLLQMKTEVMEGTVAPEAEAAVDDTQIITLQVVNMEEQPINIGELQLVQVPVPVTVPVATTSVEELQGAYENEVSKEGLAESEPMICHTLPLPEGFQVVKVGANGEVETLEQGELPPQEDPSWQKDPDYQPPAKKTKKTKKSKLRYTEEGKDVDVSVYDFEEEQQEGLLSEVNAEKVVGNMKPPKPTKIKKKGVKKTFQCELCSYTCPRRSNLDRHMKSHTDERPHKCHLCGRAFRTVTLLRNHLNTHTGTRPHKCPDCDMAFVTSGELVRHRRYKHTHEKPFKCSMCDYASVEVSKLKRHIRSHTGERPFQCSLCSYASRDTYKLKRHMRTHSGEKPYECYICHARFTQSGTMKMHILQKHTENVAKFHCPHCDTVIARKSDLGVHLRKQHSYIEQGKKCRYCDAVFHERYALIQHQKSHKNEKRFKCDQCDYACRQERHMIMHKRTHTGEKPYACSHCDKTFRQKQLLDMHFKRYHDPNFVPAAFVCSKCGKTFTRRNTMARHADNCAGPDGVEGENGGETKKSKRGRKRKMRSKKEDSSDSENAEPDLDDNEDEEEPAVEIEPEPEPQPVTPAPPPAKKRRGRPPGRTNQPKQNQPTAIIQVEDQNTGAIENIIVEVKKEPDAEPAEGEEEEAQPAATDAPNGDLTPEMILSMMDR
UniProt Q5QP82: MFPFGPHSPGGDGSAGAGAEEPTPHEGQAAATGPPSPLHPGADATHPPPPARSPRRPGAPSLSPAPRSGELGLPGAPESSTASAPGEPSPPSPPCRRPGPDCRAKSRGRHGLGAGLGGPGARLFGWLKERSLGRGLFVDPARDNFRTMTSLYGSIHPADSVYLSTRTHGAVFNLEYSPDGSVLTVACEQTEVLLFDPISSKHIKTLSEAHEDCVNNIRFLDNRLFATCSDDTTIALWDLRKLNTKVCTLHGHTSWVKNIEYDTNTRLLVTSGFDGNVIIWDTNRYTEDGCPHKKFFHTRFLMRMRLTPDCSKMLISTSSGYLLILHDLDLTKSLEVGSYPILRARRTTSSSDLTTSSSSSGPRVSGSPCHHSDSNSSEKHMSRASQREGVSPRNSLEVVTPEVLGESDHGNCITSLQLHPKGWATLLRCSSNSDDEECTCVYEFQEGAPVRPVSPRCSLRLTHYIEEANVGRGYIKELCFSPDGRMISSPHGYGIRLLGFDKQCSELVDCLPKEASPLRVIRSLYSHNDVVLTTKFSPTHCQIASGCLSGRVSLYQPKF
UniProt Q8N465: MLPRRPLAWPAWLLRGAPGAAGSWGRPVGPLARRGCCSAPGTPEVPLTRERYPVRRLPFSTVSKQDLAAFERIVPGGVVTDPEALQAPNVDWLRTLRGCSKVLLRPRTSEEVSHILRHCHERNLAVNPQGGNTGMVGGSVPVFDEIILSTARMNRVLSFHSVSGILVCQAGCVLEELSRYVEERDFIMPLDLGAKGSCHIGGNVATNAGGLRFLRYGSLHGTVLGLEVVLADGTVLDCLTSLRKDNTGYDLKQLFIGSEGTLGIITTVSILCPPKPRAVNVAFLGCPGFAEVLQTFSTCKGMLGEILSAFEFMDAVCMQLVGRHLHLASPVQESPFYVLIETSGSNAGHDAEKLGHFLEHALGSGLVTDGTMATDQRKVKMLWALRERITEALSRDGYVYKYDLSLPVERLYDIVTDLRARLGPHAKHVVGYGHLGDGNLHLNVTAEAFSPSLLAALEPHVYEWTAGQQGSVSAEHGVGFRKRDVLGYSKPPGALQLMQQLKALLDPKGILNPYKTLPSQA
UniProt P07108: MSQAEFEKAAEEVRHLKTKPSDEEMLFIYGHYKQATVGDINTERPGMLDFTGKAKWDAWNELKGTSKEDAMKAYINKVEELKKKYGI
UniProt Q9NPI6: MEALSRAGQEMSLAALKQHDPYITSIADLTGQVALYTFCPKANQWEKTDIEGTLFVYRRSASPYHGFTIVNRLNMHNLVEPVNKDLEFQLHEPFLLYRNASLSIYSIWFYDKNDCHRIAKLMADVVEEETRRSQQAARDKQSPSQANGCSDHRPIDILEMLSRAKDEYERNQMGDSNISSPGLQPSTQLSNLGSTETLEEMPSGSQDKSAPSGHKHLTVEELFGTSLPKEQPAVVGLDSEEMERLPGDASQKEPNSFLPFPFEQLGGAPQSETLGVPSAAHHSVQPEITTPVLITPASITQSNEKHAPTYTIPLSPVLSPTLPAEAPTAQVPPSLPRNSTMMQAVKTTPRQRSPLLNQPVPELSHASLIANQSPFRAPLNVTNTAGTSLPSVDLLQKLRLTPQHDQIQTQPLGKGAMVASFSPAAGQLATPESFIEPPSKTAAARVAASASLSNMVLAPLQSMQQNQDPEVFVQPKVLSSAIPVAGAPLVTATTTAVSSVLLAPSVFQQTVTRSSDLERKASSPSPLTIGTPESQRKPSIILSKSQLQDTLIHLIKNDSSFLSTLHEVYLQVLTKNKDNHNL
UniProt Q14118: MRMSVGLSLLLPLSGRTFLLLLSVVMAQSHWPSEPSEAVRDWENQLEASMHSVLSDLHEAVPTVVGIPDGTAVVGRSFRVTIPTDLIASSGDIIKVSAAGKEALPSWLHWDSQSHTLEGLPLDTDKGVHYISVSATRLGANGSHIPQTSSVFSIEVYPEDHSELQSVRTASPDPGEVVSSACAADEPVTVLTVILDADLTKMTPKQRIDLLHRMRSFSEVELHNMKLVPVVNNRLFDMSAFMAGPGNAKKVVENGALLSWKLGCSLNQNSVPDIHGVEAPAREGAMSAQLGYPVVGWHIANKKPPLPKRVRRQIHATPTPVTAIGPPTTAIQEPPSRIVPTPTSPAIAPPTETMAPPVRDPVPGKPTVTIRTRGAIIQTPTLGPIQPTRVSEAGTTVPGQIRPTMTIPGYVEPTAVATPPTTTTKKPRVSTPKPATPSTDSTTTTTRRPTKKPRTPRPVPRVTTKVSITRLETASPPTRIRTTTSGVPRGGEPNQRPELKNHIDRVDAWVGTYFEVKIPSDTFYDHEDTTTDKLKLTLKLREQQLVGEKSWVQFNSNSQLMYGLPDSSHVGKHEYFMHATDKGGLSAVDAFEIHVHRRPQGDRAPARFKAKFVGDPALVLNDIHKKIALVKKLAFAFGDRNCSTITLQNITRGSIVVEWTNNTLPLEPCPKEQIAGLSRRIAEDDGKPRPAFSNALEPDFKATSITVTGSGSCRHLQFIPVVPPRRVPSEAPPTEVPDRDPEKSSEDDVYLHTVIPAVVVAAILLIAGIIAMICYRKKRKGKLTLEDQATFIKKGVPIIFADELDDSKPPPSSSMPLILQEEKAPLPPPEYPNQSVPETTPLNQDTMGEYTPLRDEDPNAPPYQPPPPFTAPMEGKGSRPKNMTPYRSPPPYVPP
UniProt P32929, whole entry, looked up: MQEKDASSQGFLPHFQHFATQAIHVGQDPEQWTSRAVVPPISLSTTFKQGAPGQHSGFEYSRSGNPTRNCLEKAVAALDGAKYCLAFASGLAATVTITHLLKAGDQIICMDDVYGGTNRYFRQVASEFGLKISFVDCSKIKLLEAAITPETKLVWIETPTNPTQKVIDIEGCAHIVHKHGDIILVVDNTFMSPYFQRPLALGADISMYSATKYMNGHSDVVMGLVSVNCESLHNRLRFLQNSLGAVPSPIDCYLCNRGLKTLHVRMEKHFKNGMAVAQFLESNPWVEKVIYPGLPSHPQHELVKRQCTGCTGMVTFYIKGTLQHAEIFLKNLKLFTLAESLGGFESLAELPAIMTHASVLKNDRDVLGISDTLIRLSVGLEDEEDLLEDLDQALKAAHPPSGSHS
UniProt Q9UBR2: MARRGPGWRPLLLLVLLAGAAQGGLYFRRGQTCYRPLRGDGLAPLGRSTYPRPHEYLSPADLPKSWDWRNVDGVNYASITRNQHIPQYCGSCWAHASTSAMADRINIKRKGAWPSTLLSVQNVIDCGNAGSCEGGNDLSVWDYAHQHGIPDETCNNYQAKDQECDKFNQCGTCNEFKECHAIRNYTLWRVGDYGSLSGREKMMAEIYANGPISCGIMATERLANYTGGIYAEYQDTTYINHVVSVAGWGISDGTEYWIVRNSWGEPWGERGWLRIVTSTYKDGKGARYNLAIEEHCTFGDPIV
UniProt Q14203, whole entry, looked up: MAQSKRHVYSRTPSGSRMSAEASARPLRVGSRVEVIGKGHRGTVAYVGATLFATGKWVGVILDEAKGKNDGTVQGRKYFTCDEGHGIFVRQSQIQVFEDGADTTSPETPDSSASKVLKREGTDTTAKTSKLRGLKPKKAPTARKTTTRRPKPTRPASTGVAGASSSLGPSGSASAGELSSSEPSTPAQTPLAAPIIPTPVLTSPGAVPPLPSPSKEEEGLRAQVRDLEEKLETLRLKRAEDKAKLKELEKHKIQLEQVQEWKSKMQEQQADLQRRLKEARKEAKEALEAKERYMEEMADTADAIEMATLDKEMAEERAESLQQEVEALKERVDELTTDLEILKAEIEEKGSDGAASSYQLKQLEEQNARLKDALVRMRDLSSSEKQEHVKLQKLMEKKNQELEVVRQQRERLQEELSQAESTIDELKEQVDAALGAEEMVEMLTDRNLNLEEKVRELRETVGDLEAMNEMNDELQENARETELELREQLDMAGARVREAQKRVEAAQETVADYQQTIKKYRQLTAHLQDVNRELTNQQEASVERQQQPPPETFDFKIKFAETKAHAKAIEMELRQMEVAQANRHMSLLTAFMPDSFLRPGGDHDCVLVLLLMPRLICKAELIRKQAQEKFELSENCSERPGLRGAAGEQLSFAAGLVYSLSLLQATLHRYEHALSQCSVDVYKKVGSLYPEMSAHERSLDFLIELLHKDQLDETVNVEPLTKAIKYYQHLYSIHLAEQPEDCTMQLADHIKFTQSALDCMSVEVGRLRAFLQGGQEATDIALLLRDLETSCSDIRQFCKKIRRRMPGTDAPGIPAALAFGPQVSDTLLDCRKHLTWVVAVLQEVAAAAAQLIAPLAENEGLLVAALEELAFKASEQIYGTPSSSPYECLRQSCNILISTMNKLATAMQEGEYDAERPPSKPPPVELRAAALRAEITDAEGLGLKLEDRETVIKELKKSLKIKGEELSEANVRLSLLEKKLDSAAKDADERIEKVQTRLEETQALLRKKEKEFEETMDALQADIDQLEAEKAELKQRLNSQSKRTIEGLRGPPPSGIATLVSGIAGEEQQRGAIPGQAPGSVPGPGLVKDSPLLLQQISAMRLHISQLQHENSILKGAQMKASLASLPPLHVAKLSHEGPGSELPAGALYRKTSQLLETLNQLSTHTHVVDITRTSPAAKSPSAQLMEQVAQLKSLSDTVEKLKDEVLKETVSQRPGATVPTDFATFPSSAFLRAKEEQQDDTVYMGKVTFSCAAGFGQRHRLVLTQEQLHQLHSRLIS
UniProt P07711: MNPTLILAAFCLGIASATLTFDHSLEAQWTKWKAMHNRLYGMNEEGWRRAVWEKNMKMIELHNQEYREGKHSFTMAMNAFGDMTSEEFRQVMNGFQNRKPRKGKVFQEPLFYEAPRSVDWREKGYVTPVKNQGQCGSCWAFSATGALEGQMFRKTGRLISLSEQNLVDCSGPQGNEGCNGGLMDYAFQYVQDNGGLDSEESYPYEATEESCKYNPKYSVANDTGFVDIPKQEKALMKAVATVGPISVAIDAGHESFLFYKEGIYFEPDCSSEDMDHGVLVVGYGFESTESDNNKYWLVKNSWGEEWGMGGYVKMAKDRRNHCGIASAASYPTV

What was measured:
Test in all cases: log2 fold change, soluble protein after heating vs DMSO (PISA); higher = thermal stabilisation; K562 cells, 10 uM, 30 min; active = over 0.2 and 3.5 SD of the protein, either way, in both replicates (recomputed)
[1] = compound: CC[C@@H]1C(=O)N(C)c2cnc(Nc3ccc(C(=O)NC4CCN(C)CC4)cc3OC)nc2N1C1CCCC1
Outline: (§1)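 Quantification of soluble protein used TMTpro 16plex LC-MS/MS, with channel sums equalised. Samples were the supernatant after 21,000xg for 90 min of pooled aliquots from K562 cells (2×10^6 cells/mL) treated with 10 μM compound for 30 min, heated for 3 min over 48°C-58°C, and extracted in PBS with 0.5% NP-40 at 4°C. Values, from duplicates, describe thermal stability against control samples on a log2 fold-change scale.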

volasertib = compound: CC[C@@H]1C(=O)N(C)c2cnc(Nc3ccc(C(=O)N[C@H]4CC[C@H](N5CCN(CC6CC6)CC5)CC4)cc3OC)nc2N1C(C)C [volasertib]
Outline: as §1

[2] = compound: CC[C@H](C)N1C=C(C2=C(C=C(C=C21)C3=CN=C(C=C3)N4CCNCC4)C(=O)NCC5=C(C=C(NC5=O)C)C)C
Outline: as §1

epoxomicin = compound: CC[C@H](C)[C@@H](C(=O)N[C@@H]([C@@H](C)O)C(=O)N[C@@H](CC(C)C)C(=O)[C@]1(CO1)C)NC(=O)[C@H]([C@@H](C)CC)N(C)C(=O)C [epoxomicin]
Outline: as §1

[3] = compound: CCn1c(C(=O)N(C2CC2)C2CC2)cc2c3c(ncn3C)c(Nc3cc(C)n(C)n3)nc21
Outline: as §1

[4] = compound: CCn1cc(-c2ccnc3[nH]c(-c4cccc(CN(C)C)c4)cc23)c(-c2ccc(NC(=O)N(C)C)cc2)n1
Outline: as §1

[5] = compound: CN(C)CC(=O)Nc1ccc2[nH]c(=O)c3ccccc3c2c1
Outline: as §1

rosiglitazone = compound: CN(CCOC1=CC=C(C=C1)C[C@H]2C(=O)NC(=O)S2)C3=CC=CC=N3 (racemic) [rosiglitazone]
Outline: as §1

[6] = compound: CN1C2=C(C3=C1C(=O)N(N=C3)CC4=CC(=CC=C4)N)SC(=C2)S(=O)C
Outline: as §1

[7] = compound: CN1CCC(CNc2ccc3ncc(-c4cccc(OC(F)(F)F)c4)n3n2)CC1
Outline: as §1

CTNNA1 isoform 2 (UniProt P35221)
log2 fold change [1]: inactive: 0.014 | log2 fold change (volasertib): inactive: -0.009 | log2 fold change [2]: inactive: 0.02 | log2 fold change (epoxomicin): inactive: 0.125 | log2 fold change [3]: inactive: -0.021 | log2 fold change [4]: inactive: -0.034 | log2 fold change [5]: inactive: 0.003 | log2 fold change (rosiglitazone): inactive: 0.02 | log2 fold change [6]: inactive: -0.057 | log2 fold change [7]: inactive: 0.003

CWC27 (UniProt Q6UX04)
log2 fold change [1]: inactive: -0.103 | log2 fold change (volasertib): active: -0.421 | log2 fold change [2]: inactive: 0.086 | log2 fold change (epoxomicin): inactive: 0.094 | log2 fold change [4]: inactive: 0.117 | log2 fold change [5]: inactive: 0.066 | log2 fold change [6]: inactive: -0.011 | log2 fold change [7]: inactive: -0.091

CTBP2 isoform 2 (UniProt P56545)
log2 fold change [1]: inactive: 0.077 | log2 fold change (volasertib): inactive: 0.051 | log2 fold change [2]: inactive: -0.03 | log2 fold change (epoxomicin): inactive: -0.003 | log2 fold change [3]: inactive: 0.011 | log2 fold change [4]: inactive: -0.048 | log2 fold change [5]: inactive: 0.02 | log2 fold change (rosiglitazone): inactive: 0.001 | log2 fold change [6]: inactive: -0.054 | log2 fold change [7]: inactive: 0.016

CSTB (UniProt P04080)
log2 fold change [1]: inactive: 0.109 | log2 fold change (volasertib): inactive: 0.031 | log2 fold change [2]: inactive: 0 | log2 fold change (epoxomicin): inactive: 0.114 | log2 fold change [3]: inactive: 0.026 | log2 fold change [4]: inactive: -0.076 | log2 fold change [5]: inactive: 0.026 | log2 fold change (rosiglitazone): inactive: -0.022 | log2 fold change [6]: inactive: 0.026 | log2 fold change [7]: inactive: 0.086

CYB5R2 (UniProt Q6BCY4)
log2 fold change [1]: inactive: 0.049 | log2 fold change (volasertib): inactive: 0.114 | log2 fold change [2]: inactive: -0.06 | log2 fold change (epoxomicin): inactive: 0.031 | log2 fold change [3]: inactive: -0.021 | log2 fold change [4]: inactive: 0.029 | log2 fold change [5]: inactive: -0.035 | log2 fold change (rosiglitazone): inactive: 0 | log2 fold change [6]: inactive: -0.014 | log2 fold change [7]: inactive: -0.09

CTCF (UniProt P49711)
log2 fold change [1]: inactive: 0.181 | log2 fold change (volasertib): inactive: 0.247 | log2 fold change [2]: inactive: 0.127 | log2 fold change (epoxomicin): inactive: -0.189 | log2 fold change [3]: inactive: -0.019 | log2 fold change [4]: inactive: 0.272 | log2 fold change [5]: inactive: -0.06 | log2 fold change (rosiglitazone): inactive: -0.087 | log2 fold change [6]: inactive: 0.277 | log2 fold change [7]: inactive: 0.339

DAZAP1 (UniProt Q96EP5)
log2 fold change [1]: inactive: 0.099 | log2 fold change (volasertib): inactive: 0.031 | log2 fold change [2]: inactive: 0.001 | log2 fold change (epoxomicin): inactive: -0.077 | log2 fold change [3]: inactive: -0.009 | log2 fold change [4]: inactive: 0.173 | log2 fold change [5]: inactive: -0.028 | log2 fold change (rosiglitazone): inactive: -0.009 | log2 fold change [6]: inactive: -0.015 | log2 fold change [7]: inactive: 0.198

DCAF10 (UniProt Q5QP82)
log2 fold change [1]: inactive: -0.003 | log2 fold change (volasertib): inactive: 0.029 | log2 fold change [2]: inactive: -0.038 | log2 fold change (epoxomicin): inactive: -0.102 | log2 fold change [4]: inactive: -0.018 | log2 fold change [5]: inactive: -0.043 | log2 fold change [6]: inactive: -0.026 | log2 fold change [7]: inactive: 0.022

D2HGDH (UniProt Q8N465)
log2 fold change [1]: inactive: 0.061 | log2 fold change (volasertib): inactive: -0.014 | log2 fold change [2]: inactive: 0.061 | log2 fold change (epoxomicin): inactive: 0.048 | log2 fold change [3]: inactive: -0.014 | log2 fold change [4]: inactive: -0.143 | log2 fold change [5]: inactive: 0.062 | log2 fold change (rosiglitazone): inactive: 0.126 | log2 fold change [6]: inactive: 0.035 | log2 fold change [7]: inactive: -0.087

DBI isoform 5 (UniProt P07108)
log2 fold change [1]: inactive: 0.053 | log2 fold change (volasertib): inactive: 0.043 | log2 fold change [2]: inactive: -0.004 | log2 fold change (epoxomicin): inactive: 0.242 | log2 fold change [3]: inactive: -0.002 | log2 fold change [4]: inactive: 0.006 | log2 fold change [5]: inactive: -0.037 | log2 fold change (rosiglitazone): inactive: -0.052 | log2 fold change [6]: inactive: -0.029 | log2 fold change [7]: inactive: -0.015

CXorf56 (UniProt Q9H5V9)
log2 fold change [1]: inactive: -0.018 | log2 fold change (volasertib): inactive: -0.088 | log2 fold change [2]: inactive: 0.06 | log2 fold change (epoxomicin): inactive: 0.086 | log2 fold change [3]: inactive: -0.013 | log2 fold change [4]: inactive: -0.055 | log2 fold change [5]: inactive: 0.012 | log2 fold change (rosiglitazone): inactive: 0.024 | log2 fold change [6]: inactive: 0.033 | log2 fold change [7]: inactive: 0.052

DCP1A (UniProt Q9NPI6)
log2 fold change [1]: inactive: -0.1 | log2 fold change (volasertib): inactive: -0.201 | log2 fold change [2]: inactive: 0.151 | log2 fold change (epoxomicin): inactive: 0.014 | log2 fold change [3]: inactive: -0.04 | log2 fold change [4]: inactive: -0.071 | log2 fold change [5]: inactive: 0.061 | log2 fold change (rosiglitazone): inactive: 0.035 | log2 fold change [6]: inactive: 0.189 | log2 fold change [7]: inactive: -0.131

DCAF11 (UniProt Q8TEB1)
log2 fold change [1]: inactive: 0.058 | log2 fold change (volasertib): inactive: -0.005 | log2 fold change [2]: inactive: 0.024 | log2 fold change (epoxomicin): inactive: -0.019 | log2 fold change [3]: inactive: -0.027 | log2 fold change [4]: inactive: -0.003 | log2 fold change [5]: inactive: -0.019 | log2 fold change (rosiglitazone): inactive: -0.013 | log2 fold change [6]: inactive: -0.057 | log2 fold change [7]: inactive: 0.026

DAG1 (UniProt Q14118)
log2 fold change [1]: inactive: 0.149 | log2 fold change (volasertib): inactive: 0.048 | log2 fold change [2]: inactive: -0.008 | log2 fold change (epoxomicin): inactive: 0.023 | log2 fold change [4]: inactive: -0.044 | log2 fold change [5]: inactive: 0.012 | log2 fold change [6]: inactive: -0.075 | log2 fold change [7]: active: 0.243

CUL4B (UniProt K4DI93)
log2 fold change [1]: inactive: -0.009 | log2 fold change (volasertib): inactive: -0.048 | log2 fold change [2]: inactive: 0.022 | log2 fold change (epoxomicin): inactive: 0.026 | log2 fold change [3]: inactive: 0 | log2 fold change [4]: inactive: -0.009 | log2 fold change [5]: inactive: -0.005 | log2 fold change (rosiglitazone): inactive: 0 | log2 fold change [6]: inactive: -0.079 | log2 fold change [7]: inactive: -0.003

CST3 (UniProt P01034)
log2 fold change [1]: inactive: 0.219 | log2 fold change (volasertib): inactive: 0.187 | log2 fold change [2]: inactive: -0.025 | log2 fold change (epoxomicin): inactive: 0.051 | log2 fold change [3]: inactive: 0.035 | log2 fold change [4]: inactive: 0.116 | log2 fold change [5]: inactive: -0.073 | log2 fold change (rosiglitazone): inactive: 0 | log2 fold change [6]: inactive: -0.061 | log2 fold change [7]: inactive: 0.037

CTH (UniProt P32929)
log2 fold change [1]: inactive: 0.044 | log2 fold change (volasertib): inactive: 0.026 | log2 fold change [2]: inactive: -0.03 | log2 fold change (epoxomicin): inactive: 0.009 | log2 fold change [3]: inactive: 0.022 | log2 fold change [4]: inactive: -0.023 | log2 fold change [5]: inactive: -0.016 | log2 fold change (rosiglitazone): inactive: -0.002 | log2 fold change [6]: inactive: -0.101 | log2 fold change [7]: inactive: 0.029

CTSZ (UniProt Q9UBR2)
log2 fold change [1]: active: -0.954 | log2 fold change (volasertib): active: -1.54 | log2 fold change [2]: inactive: -0.058 | log2 fold change (epoxomicin): inactive: 0.02 | log2 fold change [4]: inactive: 0 | log2 fold change [5]: inactive: -0.026 | log2 fold change [6]: inactive: -0.087 | log2 fold change [7]: active: -0.843

CTNNB1 (UniProt P35222)
log2 fold change [1]: inactive: 0.2 | log2 fold change (volasertib): inactive: -0.162 | log2 fold change [2]: inactive: -0.116 | log2 fold change (epoxomicin): active: 0.887 | log2 fold change [4]: inactive: -0.304 | log2 fold change [5]: inactive: -0.151 | log2 fold change [6]: inactive: -0.185 | log2 fold change [7]: inactive: 0.379

CSTF3 (UniProt Q12996)
log2 fold change [1]: inactive: 0.061 | log2 fold change (volasertib): inactive: 0.091 | log2 fold change [2]: inactive: -0.028 | log2 fold change (epoxomicin): inactive: -0.029 | log2 fold change [4]: inactive: -0.038 | log2 fold change [5]: inactive: -0.002 | log2 fold change [6]: inactive: -0.048 | log2 fold change [7]: inactive: 0.13

CYBA (UniProt P13498)
log2 fold change [1]: inactive: -0.091 | log2 fold change (volasertib): inactive: -0.125 | log2 fold change [2]: inactive: -0.026 | log2 fold change (epoxomicin): inactive: 0.037 | log2 fold change [4]: inactive: 0.074 | log2 fold change [5]: inactive: -0.02 | log2 fold change [6]: inactive: -0.064 | log2 fold change [7]: inactive: -0.04

DCTN1 isoform 4 (UniProt Q14203)
log2 fold change [1]: inactive: 0.01 | log2 fold change (volasertib): inactive: -0.1 | log2 fold change [2]: inactive: 0.078 | log2 fold change (epoxomicin): inactive: 0.02 | log2 fold change [4]: inactive: -0.024 | log2 fold change [5]: inactive: 0.052 | log2 fold change [6]: inactive: 0.149 | log2 fold change [7]: inactive: -0.096

CTSL (UniProt P07711)
log2 fold change [1]: inactive: -0.124 | log2 fold change (volasertib): inactive: -0.247 | log2 fold change [2]: inactive: -0.045 | log2 fold change (epoxomicin): inactive: 0.017 | log2 fold change [4]: inactive: 0.196 | log2 fold change [5]: inactive: -0.074 | log2 fold change [6]: inactive: 0.019 | log2 fold change [7]: inactive: -0.306

CUEDC2 (UniProt Q9H467)
log2 fold change [1]: inactive: -0.044 | log2 fold change (volasertib): inactive: -0.133 | log2 fold change [2]: inactive: 0.033 | log2 fold change (epoxomicin): inactive: 0.118 | log2 fold change [4]: inactive: -0.001 | log2 fold change [5]: inactive: -0.01 | log2 fold change [6]: inactive: -0.038 | log2 fold change [7]: inactive: -0.067

CSTF2 (UniProt P33240)
log2 fold change [1]: inactive: 0.06 | log2 fold change (volasertib): active: 0.233 | log2 fold change [2]: inactive: -0.024 | log2 fold change (epoxomicin): inactive: -0.077 | log2 fold change [4]: inactive: 0.041 | log2 fold change [5]: inactive: -0.048 | log2 fold change [6]: inactive: -0.085 | log2 fold change [7]: inactive: -0.004

CYBRD1 (UniProt Q53TN4)
log2 fold change [1]: inactive: -0.023 | log2 fold change (volasertib): inactive: 0.242 | log2 fold change [3]: inactive: 0.173 | log2 fold change [4]: inactive: -0.024 | log2 fold change [5]: inactive: -0.147 | log2 fold change [6]: inactive: 0.125 | log2 fold change [7]: inactive: 0.136
